Reference: the supplement of paper PMC10849652
The list shows a part of the results.

By UniProt entry, the sequences of proteins in these tests, tags left out. Where a name states a change or a piece, a line headed by the entry shows the natural chain unless it says otherwise.
UniProt Q9H6Z4: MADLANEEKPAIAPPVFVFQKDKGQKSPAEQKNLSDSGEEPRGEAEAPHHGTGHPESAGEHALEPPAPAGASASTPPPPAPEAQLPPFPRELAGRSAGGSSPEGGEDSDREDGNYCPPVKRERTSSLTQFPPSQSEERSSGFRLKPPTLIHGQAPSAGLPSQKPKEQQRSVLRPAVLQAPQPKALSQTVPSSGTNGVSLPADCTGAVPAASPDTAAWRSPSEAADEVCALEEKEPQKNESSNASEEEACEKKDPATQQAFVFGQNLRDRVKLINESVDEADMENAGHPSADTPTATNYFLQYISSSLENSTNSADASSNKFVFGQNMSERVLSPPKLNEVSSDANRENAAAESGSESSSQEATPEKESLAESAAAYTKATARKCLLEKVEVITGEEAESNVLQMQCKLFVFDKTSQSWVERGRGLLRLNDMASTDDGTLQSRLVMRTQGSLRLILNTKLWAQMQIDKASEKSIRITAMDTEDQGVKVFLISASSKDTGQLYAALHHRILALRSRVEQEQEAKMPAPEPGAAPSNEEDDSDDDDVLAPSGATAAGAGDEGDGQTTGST
UniProt Q6WKZ4: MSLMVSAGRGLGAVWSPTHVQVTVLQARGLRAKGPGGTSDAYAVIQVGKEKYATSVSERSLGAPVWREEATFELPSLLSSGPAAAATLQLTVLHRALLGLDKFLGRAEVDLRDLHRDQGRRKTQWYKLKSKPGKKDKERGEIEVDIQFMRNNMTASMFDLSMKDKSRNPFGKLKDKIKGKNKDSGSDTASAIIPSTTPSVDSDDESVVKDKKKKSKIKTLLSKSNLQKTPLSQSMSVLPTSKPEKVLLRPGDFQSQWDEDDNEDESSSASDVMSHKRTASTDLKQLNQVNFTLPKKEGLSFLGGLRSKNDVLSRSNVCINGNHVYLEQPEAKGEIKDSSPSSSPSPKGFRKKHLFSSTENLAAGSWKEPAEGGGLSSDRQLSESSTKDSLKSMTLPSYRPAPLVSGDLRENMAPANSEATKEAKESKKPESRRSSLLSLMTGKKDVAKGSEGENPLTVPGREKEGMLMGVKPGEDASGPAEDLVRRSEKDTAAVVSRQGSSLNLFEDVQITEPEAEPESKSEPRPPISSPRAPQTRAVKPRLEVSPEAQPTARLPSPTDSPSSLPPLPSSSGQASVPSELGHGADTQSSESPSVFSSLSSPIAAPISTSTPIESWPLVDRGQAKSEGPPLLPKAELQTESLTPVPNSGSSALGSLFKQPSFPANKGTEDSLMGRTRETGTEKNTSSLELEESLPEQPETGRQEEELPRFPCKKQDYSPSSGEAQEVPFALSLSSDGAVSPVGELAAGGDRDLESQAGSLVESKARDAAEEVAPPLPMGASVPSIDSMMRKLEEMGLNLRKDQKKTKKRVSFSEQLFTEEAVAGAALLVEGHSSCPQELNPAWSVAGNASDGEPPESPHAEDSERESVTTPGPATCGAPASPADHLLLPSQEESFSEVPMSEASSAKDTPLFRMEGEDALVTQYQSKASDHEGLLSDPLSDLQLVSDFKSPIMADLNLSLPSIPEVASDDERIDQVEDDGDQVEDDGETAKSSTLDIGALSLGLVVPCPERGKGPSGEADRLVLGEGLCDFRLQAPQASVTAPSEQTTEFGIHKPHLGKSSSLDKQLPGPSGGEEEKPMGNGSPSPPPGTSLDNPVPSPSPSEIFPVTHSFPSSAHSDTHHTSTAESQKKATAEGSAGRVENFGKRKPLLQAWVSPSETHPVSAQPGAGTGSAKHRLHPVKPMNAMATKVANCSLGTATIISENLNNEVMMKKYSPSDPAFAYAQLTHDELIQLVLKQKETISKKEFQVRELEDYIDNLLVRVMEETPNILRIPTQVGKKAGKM
UniProt P47224: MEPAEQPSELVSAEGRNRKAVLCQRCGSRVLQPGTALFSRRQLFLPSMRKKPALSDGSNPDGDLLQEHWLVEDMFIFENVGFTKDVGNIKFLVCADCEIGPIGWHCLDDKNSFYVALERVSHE
UniProt Q6GYQ0: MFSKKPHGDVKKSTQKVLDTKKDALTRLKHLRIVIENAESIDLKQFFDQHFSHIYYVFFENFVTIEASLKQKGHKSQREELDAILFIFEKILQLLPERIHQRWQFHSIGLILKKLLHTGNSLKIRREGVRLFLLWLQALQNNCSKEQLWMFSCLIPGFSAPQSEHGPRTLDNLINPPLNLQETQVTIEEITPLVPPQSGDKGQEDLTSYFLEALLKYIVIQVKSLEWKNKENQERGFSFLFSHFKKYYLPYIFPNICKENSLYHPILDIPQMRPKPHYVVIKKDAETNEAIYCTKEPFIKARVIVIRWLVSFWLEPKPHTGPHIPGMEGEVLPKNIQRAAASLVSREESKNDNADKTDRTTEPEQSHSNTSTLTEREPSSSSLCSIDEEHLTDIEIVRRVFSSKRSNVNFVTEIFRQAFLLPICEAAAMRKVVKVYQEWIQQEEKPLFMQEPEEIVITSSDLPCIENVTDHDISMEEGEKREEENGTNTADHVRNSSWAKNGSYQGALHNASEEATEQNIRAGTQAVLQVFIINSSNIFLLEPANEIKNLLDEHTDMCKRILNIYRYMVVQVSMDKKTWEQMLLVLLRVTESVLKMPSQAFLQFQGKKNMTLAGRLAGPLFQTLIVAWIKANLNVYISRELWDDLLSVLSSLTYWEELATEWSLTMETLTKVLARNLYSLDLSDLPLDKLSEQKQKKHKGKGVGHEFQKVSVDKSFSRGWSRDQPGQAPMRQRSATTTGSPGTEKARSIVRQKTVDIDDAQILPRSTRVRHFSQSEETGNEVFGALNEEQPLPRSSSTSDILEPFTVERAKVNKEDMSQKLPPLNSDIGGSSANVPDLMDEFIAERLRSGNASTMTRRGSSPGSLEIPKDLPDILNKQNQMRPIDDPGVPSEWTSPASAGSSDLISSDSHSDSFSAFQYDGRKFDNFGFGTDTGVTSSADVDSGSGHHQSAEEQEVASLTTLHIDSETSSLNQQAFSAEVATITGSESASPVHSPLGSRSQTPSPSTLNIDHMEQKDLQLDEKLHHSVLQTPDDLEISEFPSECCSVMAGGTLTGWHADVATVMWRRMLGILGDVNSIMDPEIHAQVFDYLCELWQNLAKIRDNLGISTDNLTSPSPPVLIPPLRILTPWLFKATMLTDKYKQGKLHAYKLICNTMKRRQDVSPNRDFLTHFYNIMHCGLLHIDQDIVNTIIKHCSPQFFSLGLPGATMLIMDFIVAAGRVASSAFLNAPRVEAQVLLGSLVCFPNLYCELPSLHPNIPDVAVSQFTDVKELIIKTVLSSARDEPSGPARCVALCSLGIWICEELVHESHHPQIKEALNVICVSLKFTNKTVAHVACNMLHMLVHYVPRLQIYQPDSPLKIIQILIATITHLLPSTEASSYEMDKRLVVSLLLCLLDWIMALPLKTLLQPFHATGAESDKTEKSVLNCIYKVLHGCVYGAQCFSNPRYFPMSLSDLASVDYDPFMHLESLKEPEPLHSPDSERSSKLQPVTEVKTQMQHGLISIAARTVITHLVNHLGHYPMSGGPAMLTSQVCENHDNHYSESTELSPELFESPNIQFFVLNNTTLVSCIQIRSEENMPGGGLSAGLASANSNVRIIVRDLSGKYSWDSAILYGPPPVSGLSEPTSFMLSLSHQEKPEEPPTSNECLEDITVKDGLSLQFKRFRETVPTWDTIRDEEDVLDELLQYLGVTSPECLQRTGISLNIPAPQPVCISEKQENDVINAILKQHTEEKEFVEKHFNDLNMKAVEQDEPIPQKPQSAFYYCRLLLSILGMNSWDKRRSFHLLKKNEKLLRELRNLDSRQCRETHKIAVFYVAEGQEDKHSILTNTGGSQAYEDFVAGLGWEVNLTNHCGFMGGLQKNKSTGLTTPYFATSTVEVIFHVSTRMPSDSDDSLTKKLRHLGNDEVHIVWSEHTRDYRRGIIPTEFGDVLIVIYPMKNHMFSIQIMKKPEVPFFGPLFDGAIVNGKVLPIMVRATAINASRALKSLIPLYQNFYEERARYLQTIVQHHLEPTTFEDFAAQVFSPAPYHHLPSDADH
UniProt Q9NXS2: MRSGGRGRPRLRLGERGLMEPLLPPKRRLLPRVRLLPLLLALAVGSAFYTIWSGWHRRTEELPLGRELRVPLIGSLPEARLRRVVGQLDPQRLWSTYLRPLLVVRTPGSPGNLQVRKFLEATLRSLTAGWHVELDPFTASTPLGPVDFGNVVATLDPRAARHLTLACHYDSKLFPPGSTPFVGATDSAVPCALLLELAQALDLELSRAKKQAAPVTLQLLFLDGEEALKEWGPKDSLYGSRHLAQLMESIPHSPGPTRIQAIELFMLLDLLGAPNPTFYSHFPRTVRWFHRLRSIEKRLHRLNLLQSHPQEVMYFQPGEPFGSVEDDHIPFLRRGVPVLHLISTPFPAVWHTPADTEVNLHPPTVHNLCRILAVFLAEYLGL
UniProt O75771: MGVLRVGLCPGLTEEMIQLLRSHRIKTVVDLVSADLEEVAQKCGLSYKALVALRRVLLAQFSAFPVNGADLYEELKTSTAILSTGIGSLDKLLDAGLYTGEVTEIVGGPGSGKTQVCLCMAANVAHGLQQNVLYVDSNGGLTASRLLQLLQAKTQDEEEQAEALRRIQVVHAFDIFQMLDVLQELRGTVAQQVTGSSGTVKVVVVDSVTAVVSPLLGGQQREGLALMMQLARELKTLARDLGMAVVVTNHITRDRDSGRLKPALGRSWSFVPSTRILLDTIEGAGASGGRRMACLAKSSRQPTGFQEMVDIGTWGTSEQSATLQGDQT
UniProt P32322: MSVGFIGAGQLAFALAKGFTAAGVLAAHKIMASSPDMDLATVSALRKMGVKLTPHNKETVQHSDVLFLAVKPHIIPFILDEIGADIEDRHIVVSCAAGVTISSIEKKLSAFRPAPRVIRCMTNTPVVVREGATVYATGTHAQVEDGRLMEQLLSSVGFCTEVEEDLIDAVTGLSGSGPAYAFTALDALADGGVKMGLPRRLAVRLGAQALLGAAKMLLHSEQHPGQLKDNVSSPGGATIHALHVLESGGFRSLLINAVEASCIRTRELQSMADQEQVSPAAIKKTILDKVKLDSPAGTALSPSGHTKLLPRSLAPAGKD
UniProt Q9Y620: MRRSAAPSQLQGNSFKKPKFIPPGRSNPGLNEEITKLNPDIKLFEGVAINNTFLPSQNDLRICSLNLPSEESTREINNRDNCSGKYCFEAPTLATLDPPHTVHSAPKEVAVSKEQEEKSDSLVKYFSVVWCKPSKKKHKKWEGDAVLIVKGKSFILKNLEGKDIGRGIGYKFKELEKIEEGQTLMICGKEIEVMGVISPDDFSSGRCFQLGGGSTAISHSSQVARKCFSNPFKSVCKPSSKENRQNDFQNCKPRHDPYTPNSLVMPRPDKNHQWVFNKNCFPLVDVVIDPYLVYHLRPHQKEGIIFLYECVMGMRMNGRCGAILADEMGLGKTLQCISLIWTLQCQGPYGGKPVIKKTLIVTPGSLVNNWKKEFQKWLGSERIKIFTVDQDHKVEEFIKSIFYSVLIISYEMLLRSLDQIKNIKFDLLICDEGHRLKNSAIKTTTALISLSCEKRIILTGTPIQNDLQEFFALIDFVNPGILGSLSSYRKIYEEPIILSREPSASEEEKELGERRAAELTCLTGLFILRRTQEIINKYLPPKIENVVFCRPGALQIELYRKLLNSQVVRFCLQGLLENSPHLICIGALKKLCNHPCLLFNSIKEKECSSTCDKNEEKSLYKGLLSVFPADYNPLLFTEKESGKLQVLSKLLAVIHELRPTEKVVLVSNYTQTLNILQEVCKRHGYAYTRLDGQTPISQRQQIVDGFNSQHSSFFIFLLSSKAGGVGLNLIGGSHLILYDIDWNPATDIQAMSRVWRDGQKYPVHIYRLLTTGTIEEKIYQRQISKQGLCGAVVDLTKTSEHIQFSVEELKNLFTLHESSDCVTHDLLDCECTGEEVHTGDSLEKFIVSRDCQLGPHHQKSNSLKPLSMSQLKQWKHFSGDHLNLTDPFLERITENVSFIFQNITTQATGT
UniProt P52306: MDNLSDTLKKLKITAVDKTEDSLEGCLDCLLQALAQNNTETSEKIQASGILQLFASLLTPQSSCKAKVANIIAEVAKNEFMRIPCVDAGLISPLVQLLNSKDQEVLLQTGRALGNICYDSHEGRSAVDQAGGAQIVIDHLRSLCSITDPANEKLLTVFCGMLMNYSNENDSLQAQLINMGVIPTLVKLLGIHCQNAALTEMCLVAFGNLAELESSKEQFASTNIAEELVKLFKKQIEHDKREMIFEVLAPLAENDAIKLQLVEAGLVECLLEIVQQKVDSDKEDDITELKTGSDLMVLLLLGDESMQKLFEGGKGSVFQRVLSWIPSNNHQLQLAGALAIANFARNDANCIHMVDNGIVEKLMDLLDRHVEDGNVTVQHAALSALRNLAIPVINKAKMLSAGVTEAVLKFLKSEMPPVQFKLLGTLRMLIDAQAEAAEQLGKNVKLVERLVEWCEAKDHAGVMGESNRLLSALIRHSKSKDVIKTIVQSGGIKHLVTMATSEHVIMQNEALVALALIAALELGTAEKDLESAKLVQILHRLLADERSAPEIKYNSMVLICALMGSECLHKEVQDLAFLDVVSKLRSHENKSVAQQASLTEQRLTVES

What was measured:
Assay in all cases: log2 fold change, soluble protein after heating vs DMSO (PISA); higher = thermal stabilisation; K562 lysate, 10 uM; active = over 0.2 and 3.5 SD of the protein, either way, in both replicates (recomputed)
lapatinib = compound: CS(=O)(=O)CCNCc1ccc(-c2ccc3ncnc(Nc4ccc(OCc5cccc(F)c5)c(Cl)c4)c3c2)o1 [lapatinib]
In short: (§1)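 K562 pellets were dounce-homogenised in PBS pH 7.4 with 1 mM MgCl2, and the crude extract at 1 mg/mL protein was treated with 10 μM compound for 30 min. Aliquots were heated for 3 min across 48°C-58°C, pooled, and brought to 0.5% NP-40 at 4°C; soluble protein was the supernatant after 21,000xg for 90 min. Soluble protein was quantified by TMTpro 16plex LC-MS/MS with channel sums equalised, and reported as log2 fold change in thermal stability against DMSO controls, with values from duplicates.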

pictilisib = compound: CS(=O)(=O)N1CCN(Cc2cc3nc(-c4cccc5[nH]ncc45)nc(N4CCOCC4)c3s2)CC1 [pictilisib]
In short: as §1

crizotinib = compound: C[C@@H](Oc1cc(-c2cnn(C3CCNCC3)c2)cnc1N)c1c(Cl)ccc(F)c1Cl [crizotinib]
In short: as §1

duvelisib = compound: C[C@H](Nc1ncnc2nc[nH]c12)c1cc2cccc(Cl)c2c(=O)n1-c1ccccc1 [duvelisib]
In short: as §1

tozasertib = compound: Cc1cc(Nc2cc(N3CCN(C)CC3)nc(Sc3ccc(NC(=O)C4CC4)cc3)n2)n[nH]1 [tozasertib]
In short: as §1

doramapimod = compound: Cc1ccc(-n2nc(C(C)(C)C)cc2NC(=O)Nc2ccc(OCCN3CCOCC3)c3ccccc23)cc1 [doramapimod]
In short: as §1

bafetinib = compound: Cc1ccc(NC(=O)c2ccc(CN3CC[C@H](N(C)C)C3)c(C(F)(F)F)c2)cc1Nc1nccc(-c2cncnc2)n1 [bafetinib]
In short: as §1

nilotinib = compound: Cc1cn(-c2cc(NC(=O)c3ccc(C)c(Nc4nccc(-c5cccnc5)n4)c3)cc(C(F)(F)F)c2)cn1 [nilotinib]
In short: as §1

[1] = compound: Cc1nc(Nc2n[nH]c3c2CN(C(=O)N[C@H](CN(C)C)c2ccccc2)C3(C)C)c2sccc2n1
In short: as §1

dasatinib = compound: Cc1nc(Nc2ncc(C(=O)Nc3c(C)cccc3Cl)s2)cc(N2CCN(CCO)CC2)n1 [dasatinib]
In short: as §1

[2] = compound: Cc1ncc(-c2ccnc(Nc3ccc(S(C)(=O)=O)cc3)n2)n1C(C)C
In short: as §1

[3] = compound: Cn1cc(-c2ccc3c(c2)CCN3C(=O)Cc2cccc(C(F)(F)F)c2)c2c(N)ncnc21
In short: as §1

quisinostat = compound: Cn1cc(CNCC2CCN(c3ncc(C(=O)NO)cn3)CC2)c2ccccc21 [quisinostat]
In short: as §1

tipifarnib = compound: Cn1cncc1[C@@](N)(c1ccc(Cl)cc1)c1ccc2c(c1)c(-c1cccc(Cl)c1)cc(=O)n2C [tipifarnib]
In short: as §1

[4] = compound: NC(=O)Nc1cc(-c2cccc(F)c2)sc1C(=O)N[C@H]1CCCNC1
In short: as §1

[5] = compound: NC(=O)c1cnc(N[C@@H]2CCCC[C@@H]2N)nc1Nc1cccc(-n2nccn2)c1
In short: as §1

[6] = compound: C[C@H](C1=CC=C(C=C1)C(=O)NC2=C3C=CNC3=NC=C2)N
In short: as §1

gandotinib = compound: Cc1cc(Nc2cc(CN3CCOCC3)c3nc(C)c(Cc4ccc(Cl)cc4F)n3n2)n[nH]1 [gandotinib]
In short: as §1

[7] = compound: Cc1cccc(CC(=O)N2CCc3c2ccc(-c2cn(C)c4ncnc(N)c24)c3F)n1
In short: as §1

[8] = compound: NC1(c2ccc(-c3nc4ccn5c(=O)[nH]nc5c4cc3-c3ccccc3)cc2)CCC1
In short: as §1

Measured: log2 fold change

RANBP3 isoform 2 (UniProt Q9H6Z4)
inactive: lapatinib -0.045 | pictilisib 0.044 | crizotinib 0.006 | duvelisib -0.121 | tozasertib -0.038 | doramapimod 0.027 | bafetinib -0.005 | nilotinib -0.04 | [1] -0.026 | dasatinib 0.061 | [2] -0.034 | [3] 0.162 | quisinostat -0.117 | tipifarnib 0.041 | [4] 0.019 | [5] 0.028

RAB28 (UniProt P51157)
inactive: lapatinib -0.036 | pictilisib -0.101 | crizotinib -0.021 | [6] -0.018 | duvelisib -0.093 | gandotinib -0.032 | tozasertib 0.029 | doramapimod -0.049 | bafetinib 0.042 | [7] 0.146 | dasatinib 0.025 | [3] 0.02 | quisinostat 0.001 | [4] 0.086 | [5] 0.242 | [8] 0.053

RAPGEF4 (UniProt Q8WZA2)
active: [6] -0.804
inactive: lapatinib -0.061 | pictilisib 0.047 | crizotinib -0.24 | duvelisib 0.104 | gandotinib 0.38 | tozasertib -0.088 | doramapimod -0.041 | bafetinib -0.212 | [7] 0.543 | dasatinib -0.092 | [3] -0.061 | quisinostat -0.491 | [4] 0.16 | [5] 0.064 | [8] -0.192

Quoted at random: 2 entries already listed, in no set order.
RANBP3 isoform 2 (UniProt Q9H6Z4)
inactive: lapatinib -0.045 | pictilisib 0.044 | crizotinib 0.006 | duvelisib -0.121 | tozasertib -0.038 | doramapimod 0.027 | bafetinib -0.005 | nilotinib -0.04 | [1] -0.026 | dasatinib 0.061 | [2] -0.034 | [3] 0.162 | quisinostat -0.117 | tipifarnib 0.041 | [4] 0.019 | [5] 0.028

RAPGEF4 (UniProt Q8WZA2)
active: [6] -0.804
inactive: lapatinib -0.061 | pictilisib 0.047 | crizotinib -0.24 | duvelisib 0.104 | gandotinib 0.38 | tozasertib -0.088 | doramapimod -0.041 | bafetinib -0.212 | [7] 0.543 | dasatinib -0.092 | [3] -0.061 | quisinostat -0.491 | [4] 0.16 | [5] 0.064 | [8] -0.192

(continued)

RAB11FIP1 (UniProt Q6WKZ4)
inactive: lapatinib -0.003 | pictilisib -0.002 | crizotinib -0.005 | [6] -0.014 | duvelisib 0 | gandotinib -0.05 | tozasertib -0.008 | doramapimod 0.032 | bafetinib -0.049 | [7] 0.013 | nilotinib 0.006 | [1] 0.019 | dasatinib 0.001 | [2] -0.003 | [3] -0.008 | quisinostat -0.005 | tipifarnib 0.003 | [4] -0.032 | [5] -0.002 | [8] -0.026

RABIF (UniProt P47224)
inactive: lapatinib 0.065 | pictilisib -0.015 | crizotinib 0 | [6] 0.031 | duvelisib 0.016 | gandotinib -0.007 | tozasertib 0.069 | doramapimod 0.013 | bafetinib 0.054 | [7] 0.04 | nilotinib -0.003 | [1] 0.021 | dasatinib 0.058 | [2] 0.002 | [3] 0 | quisinostat 0.024 | tipifarnib -0.007 | [4] -0.036 | [5] -0.033 | [8] 0.009

PYCR1 (UniProt J3QKT4)
inactive: lapatinib -0.078 | pictilisib -0.265 | crizotinib 0 | duvelisib 0.206 | tozasertib -0.045 | doramapimod 0.028 | bafetinib -0.252 | nilotinib -0.052 | [1] -0.101 | dasatinib -0.176 | [2] 0.037 | [3] -0.067 | quisinostat 0.005 | tipifarnib -0.044 | [4] 0.045 | [5] 0.07 | [8] -0.089

RALGAPA1 isoform 6 (UniProt Q6GYQ0)
inactive: lapatinib -0.075 | pictilisib -0.157 | crizotinib 0.036 | duvelisib 0.074 | gandotinib 0.257 | tozasertib -0.006 | doramapimod 0.062 | bafetinib -0.026 | [7] 0.321 | nilotinib -0.05 | [1] -0.044 | dasatinib -0.018 | [2] -0.066 | [3] 0.071 | quisinostat -0.15 | tipifarnib 0.019 | [4] 0.039 | [5] 0.052 | [8] -0.08
active: [6] -0.28

QPCTL (UniProt Q9NXS2)
inactive: lapatinib -0.019 | pictilisib 0 | crizotinib -0.163 | [6] -0.013 | duvelisib 0.038 | gandotinib -0.023 | tozasertib -0.019 | doramapimod -0.029 | bafetinib -0.051 | [7] 0.059 | nilotinib 0.021 | [1] 0.02 | dasatinib -0.06 | [2] 0.017 | [3] 0.033 | quisinostat 0.046 | tipifarnib -0.005 | [4] -0.041 | [5] -0.007 | [8] 0.02

RANBP3 (UniProt Q9H6Z4)
inactive: lapatinib -0.005 | pictilisib -0.021 | crizotinib 0.002 | [6] -0.01 | duvelisib 0.008 | gandotinib 0.04 | tozasertib -0.024 | doramapimod -0.002 | bafetinib 0.004 | [7] 0.005 | nilotinib 0.022 | [1] -0.011 | dasatinib 0.022 | [2] 0.006 | [3] -0.016 | quisinostat -0.014 | tipifarnib -0.011 | [4] -0.02 | [5] -0.05 | [8] -0.016

RAD51D (UniProt O75771)
inactive: lapatinib 0.008 | pictilisib 0.012 | [6] 0.104 | duvelisib -0.106 | gandotinib -0.127 | tozasertib 0.042 | bafetinib -0.065 | [7] 0.048 | nilotinib 0.026 | [1] 0.047 | dasatinib 0.044 | [2] 0.068 | [3] 0.004 | tipifarnib -0.055 | [5] 0.076 | [8] -0.026

PYCR1 isoform 3 (UniProt P32322)
inactive: lapatinib -0.025 | pictilisib 0.001 | crizotinib 0.026 | [6] 0.04 | duvelisib 0.018 | gandotinib -0.017 | tozasertib -0.004 | doramapimod -0.039 | bafetinib 0.004 | [7] -0.063 | nilotinib 0.031 | [1] 0.001 | [2] -0.021 | [3] -0.009 | quisinostat 0.031 | tipifarnib 0.056 | [4] -0.022 | [5] 0.017 | [8] 0.051

R3HDM2 (UniProt B5MCU0)
inactive: crizotinib 0.014 | tozasertib 0.036 | doramapimod 0.037 | quisinostat 0.03 | [4] 0.086 | [8] -0.257

RAD54B (UniProt Q9Y620)
inactive: crizotinib -0.16 | duvelisib -0.11 | tozasertib 0.012 | doramapimod 0.076 | nilotinib -0.092 | [1] -0.043 | dasatinib -0.054 | [2] -0.035 | [3] 0.001 | quisinostat -0.341 | tipifarnib 0.064 | [4] -0.002

RAD17 (UniProt O75943)
inactive: pictilisib -0.019 | crizotinib -0.01 | [6] 0.021 | duvelisib -0.027 | gandotinib -0.194 | tozasertib 0.005 | doramapimod -0.015 | bafetinib 0 | [7] -0.055 | nilotinib -0.027 | [1] 0.073 | dasatinib -0.064 | [2] -0.023 | [3] 0 | quisinostat -0.032 | tipifarnib -0.085 | [4] 0.038

RAP1GDS1 isoform 4 (UniProt P52306)
inactive: lapatinib 0.029 | pictilisib 0.118 | [6] -0.304 | gandotinib 0.011 | bafetinib -0.133 | [7] -0.046 | [5] -0.053

RAD54L (UniProt Q92698)
active: [6] -1.75
inactive: lapatinib -0.029 | pictilisib 0.029 | duvelisib 0.109 | gandotinib 0.454 | bafetinib -0.185 | [7] 0.617 | nilotinib -0.004 | [1] 0.078 | dasatinib -0.212 | [2] 0.037 | [3] -0.054 | tipifarnib 0.007 | [5] 0.015 | [8] -0.073

RAB11FIP5, A0A1B0GTL5
inactive: lapatinib 0.022 | crizotinib -0.2 | [6] -0.088 | gandotinib -0.018 | doramapimod 0.171 | [7] 0.186 | quisinostat 0.15 | [4] -0.313 | [5] -0.066 | [8] -0.016

RALGAPB isoform 3 (UniProt Q86X10)
inactive: pictilisib -0.018 | [6] -0.04 | duvelisib -0.396 | gandotinib -0.33 | tozasertib 0.027 | bafetinib -0.255 | [7] -0.026 | dasatinib 0.052 | [3] -0.034
